The text below walks through data of publication PMC8931425, “The cytosolic Arabidopsis thaliana cysteine desulfurase ABA3 delivers sulfur to the sulfurtransferase STR18” (The Journal of Biological Chemistry, 2022).

Common to all, as to assay: split reporter; split-luciferase complementation; nLuc and cLuc fusions coexpressed in Nicotiana benthamiana leaves after Agrobacterium-mediated transient transformation; 1 mM luciferin sprayed, luminescence imaged
For assay [1], the target named is T1, ABA3-nLuc (Arabidopsis thaliana) (UniProt Q9C5X8).
T1 sequence: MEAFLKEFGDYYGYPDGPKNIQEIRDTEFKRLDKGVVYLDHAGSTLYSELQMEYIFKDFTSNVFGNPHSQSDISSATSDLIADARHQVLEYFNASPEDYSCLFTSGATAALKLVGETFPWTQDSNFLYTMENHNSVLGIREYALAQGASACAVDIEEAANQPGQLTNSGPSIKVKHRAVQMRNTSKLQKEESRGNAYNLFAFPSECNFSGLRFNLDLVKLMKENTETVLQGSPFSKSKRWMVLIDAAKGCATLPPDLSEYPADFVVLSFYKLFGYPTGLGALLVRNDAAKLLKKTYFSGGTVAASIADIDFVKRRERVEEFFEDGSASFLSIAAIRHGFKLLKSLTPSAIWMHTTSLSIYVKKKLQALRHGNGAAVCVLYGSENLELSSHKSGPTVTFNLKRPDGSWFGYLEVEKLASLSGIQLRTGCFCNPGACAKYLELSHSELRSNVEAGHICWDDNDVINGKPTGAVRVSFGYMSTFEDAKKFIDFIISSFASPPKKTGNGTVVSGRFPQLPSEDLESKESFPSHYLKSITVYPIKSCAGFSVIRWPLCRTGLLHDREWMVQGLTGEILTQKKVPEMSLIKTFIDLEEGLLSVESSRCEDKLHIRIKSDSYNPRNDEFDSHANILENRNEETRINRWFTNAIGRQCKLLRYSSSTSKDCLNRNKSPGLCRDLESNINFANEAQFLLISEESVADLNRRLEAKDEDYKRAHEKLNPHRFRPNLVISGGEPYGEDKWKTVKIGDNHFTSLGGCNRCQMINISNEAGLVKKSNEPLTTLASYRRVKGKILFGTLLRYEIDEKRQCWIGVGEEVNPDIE

The target of assay [2] is T2, cLuc-ABA3 (Arabidopsis thaliana) (UniProt Q9C5X8).
T2 sequence: T1 sequence

Assay [3] concerns the target T3, STR18-nLuc (Arabidopsis thaliana) (UniProt Q9FKW8).
T3 sequence: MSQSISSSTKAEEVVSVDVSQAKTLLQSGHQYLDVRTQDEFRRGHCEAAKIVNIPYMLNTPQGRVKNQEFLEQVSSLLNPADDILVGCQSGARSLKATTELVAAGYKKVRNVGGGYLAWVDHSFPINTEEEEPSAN

These are yes or no findings as the source states them, for the method shown. In cells and extracts the contact can be indirect. Some results given as binding are weak or reduced against the parent protein; the word gives no strength. Where a sequence is shown, tags or fusion partners need not be part of it.

B1: cLuc-STR18 (enzyme, UniProt Q9FKW8 1-136)
chain: T3 sequence
In the case of B1, in assay [1], the binding entry is given as “binds”.

B2: STR18-nLuc (enzyme, UniProt Q9FKW8 1-136)
chain: T3 sequence
With B2, the binding result in assay [2] is “binds”.

B3: cLuc-ACL1 (protein, UniProt Q9SGY2 1-423)
chain: MARKKIREYDSKRLVKEHFKRLSGKELPIRSVQINETTDLNELVEKEPWLSSEKLVVKPDMLFGKRGKSGLVALKLDFADVATFVKERLGKEVEMSGCKGPITTFIVEPFVPHNEEYYLNVVSDRLGCSISFSECGGIEIEENWDKVKTIFLPTGASLTPEICAPLVATLPLEIKAEIEEFIKVIFTLFQDLDFTFLEMNPFTLVDGSPYPLDMRGELDDTAAFKNFKKWGDIEFPLPFGRVMSPTESFIHGLDEKTSASLKFTVLNPKGRIWTMVAGGGASVIYADTVGDLGYASELGNYAEYSGAPKEDEVLQYARVVIDCATANPDGKSRALVIGGGIANFTDVAATFNGIIRALKEKEAKLKAARMHIFVRRGGPNYQKGLAKMRALGDDIGVPIEVYGPEATMTGICKEAIQYITAAA
Turning to B3, the binding entry in assay [1] and in assay [3] was “no binding” each time.
